Test results taken from US10493077B2, “Fused imidazo-piperidine JAK inhibitor compound” (THERAVANCE BIOPHARMA R&D IP, LLC, priority 2017, dated 2019).
At least one structure is not confirmed: it was looked up by name or label, or the drawing left a doubt.

Legend:
IL-6 induced pSTAT3 = assay: Pharmacodynamic assay: inhibition of IL6-induced pSTAT3 in rats; format: in vivo, rat; conditions: intravitreal dosing
Protocol: The ability of a single intravitreal administration of test compound to inhibit IL-6 induced pSTAT3 was measured in rat retina/choroid homogenates.
A suspension formulation was prepared by combining compound 1 of Example 2, with 0.5% hydroxypropyl methylcellulose (HPMC E5 LV), 0.02% Tween 80, and 9 mg/mL sodium chloride in purified water to attain a target concentration of 10 mg/mL.
Female Lewis rats were intravitreally (IVT) dosed (5 μL per eye) with the suspension formulation. Three days later, IL-6 (Peprotech; 0.1 mg/mL; 5 μL per eye) or vehicle was intravitreally administered to induce pSTAT3. Ocular tissues were dissected one hour after the second IVT injection with IL-6. The retina/choroid tissues were homogenized and pSTAT3 levels were measured using an ELISA (Cell Signaling Technology). The percent inhibition of IL-6-induced pSTAT3 was calculated in comparison to the vehicle/vehicle and vehicle/IL-6 groups. Inhibition of greater than 100% reflects a reduction of pSTAT3 levels to below those observed in the vehicle/vehicle group.

IFNγ induced pSTAT1 = assay: Pharmacodynamic assay: inhibition of IFNγ-induced pSTAT1 in rabbit eyes; format: in vivo; conditions: intravitreal dosing
Protocol: The ability of a single intravitreal administration of test compound to inhibit interferon-gamma (IFNγ) induced phosphorylation of STAT1 protein (pSTAT1) was measured in rabbit retina/choroid tissue.
(§1) A suspension formulation was prepared by combining compound 1 of Example 2 (Form 1), with 0.5% hydroxypropyl methylcellulose (HPMC E5), 0.02% Tween 80, and 9 mg/mL sodium chloride in purified water to attain a target concentration of 20 mg/mL.
Male, New Zealand White rabbits (Liveon Biolabs, India) were used for the studies. Animals were acclimated after arrival at the research facilities (Jubilant Biosys Ltd., India). Each rabbit was given a total of two intravitreal (IVT) injections with a total dose volume of 50 μL per eye. The first IVT injection (45 μL per eye) delivered 0.9 mg of test compound or vehicle. […] On the day of the injections, rabbits were anesthetized with an intramuscular injection of ketamine (35 mg/kg) and xylazine (5 mg/kg). […]
Tissues were collected 2 hours after the second IVT injection with IFNγ. Retina/choroid tissues (R/C) were collected and homogenized, and pSTAT1 levels were measured by quantitative Western Blot on the ProteinSimple WES instrument. The percent inhibition of IFNγ-induced pSTAT1 was calculated in comparison to the vehicle/vehicle and vehicle/IFNγ groups. […]

IFNγ induced IP-10 = assay: Pharmacodynamic assay: inhibition of IFNγ-induced IP-10 in rabbit eyes; format: in vivo; conditions: intravitreal dosing
Protocol: The ability of a single intravitreal administration of test compound to inhibit interferon-gamma (IFNγ) induced IP-10 protein levels was measured in rabbit vitreous and retina/choroid tissues.
as §1
Male, New Zealand White rabbits (Liveon Biolabs, India) were used for the studies. Animals were acclimated after arrival at the research facilities (Jubilant Biosys Ltd., India). Each rabbit was given a total of two intravitreal (IVT) injections with a total dose volume of 50 μL per eye. The first IVT injection (45 μL per eye) delivered 0.9 mg of test compound or vehicle. One week later, a second IVT injection (5 μL per eye) delivered IFNγ (1 μg/eye; stock solution 1 mg/mL; Kingfisher Biotech) or vehicle for the induction of IP-10. […]
Tissues were collected 24 hours after the second IVT injection with IFNγ. Vitreous humor (VH) and retina/choroid tissues (R/C) were collected and homogenized, and IP-10 protein levels were measured using a rabbit CXCL10 (IP-10) ELISA kit (Kingfisher Biotech). The percent inhibition of IFNγ-induced IP-10 was calculated in comparison to the vehicle/vehicle and vehicle/IFNγ groups.

35 different kinases = assay: Kinome screen: GINI coefficient; format: binding; conditions: panel of 35 different kinases; higher number = more selective
Protocol: Kinase-tagged T7 phage strains were grown in parallel in 24-well blocks in an E. coli host derived from the BL21 strain. E. coli were grown to log-phase and infected with T7 phage from a frozen stock (multiplicity of infection=0.4) and incubated with shaking at 32° C. until lysis (90-150 minutes). The lysates were centrifuged (6,000×g) and filtered (0.2 μm) to remove cell debris. The remaining kinases were produced in HEK-293 cells and subsequently tagged with DNA for qPCR detection.
Streptavidin-coated magnetic beads were treated with biotinylated small molecule ligands for 30 minutes at room temperature to generate affinity resins for kinase assays. The liganded beads were blocked with excess biotin and washed with blocking buffer (SeaBlock (Pierce), 1% BSA, 0.05% Tween 20, 1 mM DTT) to remove unbound ligand and to reduce non-specific phage binding. […] Test compounds were prepared as 40× stocks in 100% DMSO and directly diluted into the assay. All reactions were performed in polypropylene 384-well plates in a final volume of 0.04 ml. […] The kinase concentration in the eluates was measured by qPCR.
Both compounds 1 and C-1 were screened against 35 different kinases. The Gini coefficient was determined for both compounds. […]

Compound: CCc1cc(O)c(F)cc1-c1cc(F)c2c(-c3nc4c([nH]3)CCN(C(=O)CN3CCOCC3)C4)n[nH]c2c1 [Compound 1, 1-(2-(6-(2-ethyl-5-fluoro-4-hydroxyphenyl)-4-fluoro-1H-indazol-3-yl)-1,4,6,7-tetrahydro-5H-imidazo[4,5-c]pyridin-5-yl)-2-morpholinoethan-1-one]
- inhibition of IL-6 induced pSTAT3 in rat retina/choroid tissue (IL-6 induced pSTAT3): significant inhibition
- inhibition of IFN-γ induced pSTAT1 in the rabbit (IFNγ induced pSTAT1): significant and sustained inhibition
- inhibition of IFN-γ induced IP-10 in rabbit vitreous and retina/choroid tissues (IFNγ induced IP-10): significant and sustained inhibition
- GINI coefficient (35 different kinases): 0.62
